Test results published in patent publication US7439244B2, “Quinoline compounds and pharmeceutical compositions containing them” (Glaxo Group Limited, priority 2003, dated 2008).
Counter-ions that a name gives are not always drawn. Some results were stated once for a whole list of compounds, not compound by compound.

Amino acid sequences for entries named in this document (tags omitted).
UniProt P50406, whole entry: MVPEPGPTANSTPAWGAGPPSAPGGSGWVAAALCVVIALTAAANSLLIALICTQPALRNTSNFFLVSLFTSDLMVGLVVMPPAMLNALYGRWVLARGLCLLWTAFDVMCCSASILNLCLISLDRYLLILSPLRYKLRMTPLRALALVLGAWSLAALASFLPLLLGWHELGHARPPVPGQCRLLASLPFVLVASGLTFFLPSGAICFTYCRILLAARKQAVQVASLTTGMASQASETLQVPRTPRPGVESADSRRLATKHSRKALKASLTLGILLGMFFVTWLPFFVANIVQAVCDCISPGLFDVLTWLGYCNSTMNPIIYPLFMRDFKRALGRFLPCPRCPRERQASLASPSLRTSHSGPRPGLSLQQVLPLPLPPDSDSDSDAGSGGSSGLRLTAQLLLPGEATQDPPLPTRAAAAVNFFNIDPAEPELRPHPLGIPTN

Target: T1, human cloned 5-HT6 receptors (Homo sapiens, UniProt P50406)
T1 construct: expressed in transfected cells
Assay: affinity for the 5-HT6 receptor, procedures outlined in WO98/27081
Assay type: binding

SMILES	pKi values at human cloned 5-HT6 receptors
O=S(=O)(c1ccccc1)c1cnc2c(N3CCN(C4CC4)CC3)cccc2c1 [Example E6, 8-(4-Cyclopropyl-piperazin-1-yl)-3-phenylsulfonylquinoline hydrochloride]	> 7.0
O=S(=O)(c1ccccc1)c1cnc2c(N3CCN(C4CCCC4)CC3)cccc2c1 [Example E4, 8-(4-Cyclopentyl-piperazin-1-yl)-3-phenylsulfonylquinoline hydrochloride]	> 7.0
O=S(=O)(c1ccccc1)c1cnc2c(N3CCN(C4CCCCC4)CC3)cccc2c1 [Example E3, 8-(4-(Cyclohexyl)-piperazin-1-yl)-3-phenylsulfonylquinoline hydrochloride]	> 7.0
O=S(=O)(c1ccccc1)c1cnc2c(N3CCN(C4CCC4)CC3)cccc2c1 [Example E5, 8-(4-Cyclobutyl-piperazin-1-yl)-3-phenylsulfonylquinoline hydrochloride]	> 7.0
COCCN1CCN(c2cccc3cc(S(=O)(=O)c4ccccc4)cnc23)CC1 [Example E7, 8-(4-(2-methoxyethyl)-piperazin-1-yl)-3-phenylsulfonylquinoline hydrochloride]	> 7.0
O=S(=O)(c1ccccc1)c1cnc2c(N3CCN(CC(F)(F)F)CC3)cccc2c1 [Example E8, 8-(4-(2,2,2-Trifluoroethyl)-piperazin-1-yl)-3-phenylsulfonylquinoline]	> 7.0
O=S(=O)(c1ccccc1)c1cnc2c(N3CCN(Cc4ccc(F)cc4)CC3)cccc2c1 [Example E1, 8-(4-(4-Fluorobenzyl)-piperazin-1-yl)-3-phenylsulfonylquinoline hydrochloride]	> 7.0
O=S(=O)(c1ccccc1)c1cnc2c(N3CCN(CC4CC4)CC3)cccc2c1 [Example E2, 8-(4-Cyclopropylmethyl-piperazin-1-yl)-3-phenylsulfonylquinoline hydrochloride]	> 7.0
